Assay: general procedure: Fmoc solid-phase peptide synthesis; Rink amide MBHA resin; DIC/Oxyma
Conditions: whole synthesis, HPLC, scale of the general procedure 10.00 g resin, HCl salt (via TFA salt)

Ac-D-Cys-D-Ala-D-Arg-D-Arg-D-Arg-D-Ala-D-Arg-NH2
crude purity (method not given): 76%

Reference: patent US12162954 (dated 2024)
